# From publication PMC10234869
# These are yes or no findings as the source states them, for the method shown. Binding seen in cells or lysates may run through a third protein. Some binding calls cover weakened binding; strength is not graded here. Tags and fused reporters may be left off the sequences shown.
# T1: Frey regulator of sperm-oocyte fusion 1 with C-terminal 3xFLAG tag (Frey1-3xFLAG), wild type (murine) (UniProt Q8CF31)
# T1 sequence: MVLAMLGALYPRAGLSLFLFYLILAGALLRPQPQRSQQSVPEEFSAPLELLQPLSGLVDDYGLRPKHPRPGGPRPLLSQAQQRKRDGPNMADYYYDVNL
# T2: Frey1-3xFLAG R30K (murine) (UniProt Q8CF31)
# T2 sequence: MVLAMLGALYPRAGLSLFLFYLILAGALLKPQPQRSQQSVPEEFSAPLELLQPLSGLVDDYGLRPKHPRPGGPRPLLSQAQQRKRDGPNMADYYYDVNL
# T3: Signal Peptide Peptidase-like 2c, C-terminally myc-tagged (SPPL2c-myc) (murine) (UniProt A2A6C4)
# T3 sequence: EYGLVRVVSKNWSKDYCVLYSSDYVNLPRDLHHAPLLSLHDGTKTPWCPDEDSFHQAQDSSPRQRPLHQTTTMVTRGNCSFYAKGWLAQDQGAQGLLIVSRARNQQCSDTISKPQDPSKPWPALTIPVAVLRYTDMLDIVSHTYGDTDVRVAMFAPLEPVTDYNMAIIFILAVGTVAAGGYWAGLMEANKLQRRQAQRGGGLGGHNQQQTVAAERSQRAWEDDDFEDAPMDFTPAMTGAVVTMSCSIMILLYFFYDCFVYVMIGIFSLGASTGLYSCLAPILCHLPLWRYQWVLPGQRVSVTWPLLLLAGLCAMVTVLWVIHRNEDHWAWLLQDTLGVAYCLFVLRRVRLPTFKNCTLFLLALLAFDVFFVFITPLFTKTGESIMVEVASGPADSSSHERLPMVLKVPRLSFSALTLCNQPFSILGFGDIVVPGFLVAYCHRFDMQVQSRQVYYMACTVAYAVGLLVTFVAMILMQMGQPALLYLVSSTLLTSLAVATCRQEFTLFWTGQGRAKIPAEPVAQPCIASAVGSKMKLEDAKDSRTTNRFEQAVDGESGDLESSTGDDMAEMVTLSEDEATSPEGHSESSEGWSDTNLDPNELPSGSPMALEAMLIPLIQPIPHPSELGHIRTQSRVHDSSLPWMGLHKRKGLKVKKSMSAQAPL
# B1: Signal Peptide Peptidase-like 2c, C-terminally myc-tagged (SPPL2c-myc) (enzyme, UniProt A2A6C4 29-690)
# chain: EYGLVRVVSKNWSKDYCVLYSSDYVNLPRDLHHAPLLSLHDGTKTPWCPDEDSFHQAQDSSPRQRPLHQTTTMVTRGNCSFYAKGWLAQDQGAQGLLIVSRARNQQCSDTISKPQDPSKPWPALTIPVAVLRYTDMLDIVSHTYGDTDVRVAMFAPLEPVTDYNMAIIFILAVGTVAAGGYWAGLMEANKLQRRQAQRGGGLGGHNQQQTVAAERSQRAWEDDDFEDAPMDFTPAMTGAVVTMSCSIMILLYFFYDCFVYVMIGIFSLGASTGLYSCLAPILCHLPLWRYQWVLPGQRVSVTWPLLLLAGLCAMVTVLWVIHRNEDHWAWLLQDTLGVAYCLFVLRRVRLPTFKNCTLFLLALLAFDVFFVFITPLFTKTGESIMVEVASGPADSSSHERLPMVLKVPRLSFSALTLCNQPFSILGFGDIVVPGFLVAYCHRFDMQVQSRQVYYMACTVAYAVGLLVTFVAMILMQMGQPALLYLVSSTLLTSLAVATCRQEFTLFWTGQGRAKIPAEPVAQPCIASAVGSKMKLEDAKDSRTTNRFEQAVDGESGDLESSTGDDMAEMVTLSEDEATSPEGHSESSEGWSDTNLDPNELPSGSPMALEAMLIPLIQPIPHPSELGHIRTQSRVHDSSLPWMGLHKRKGLKVKKSMSAQAPL
# B2: Frey regulator of sperm-oocyte fusion 1 with C-terminal 3xFLAG tag (Frey1-3xFLAG), wild type (protein, UniProt Q8CF31 1-99)
# chain: MVLAMLGALYPRAGLSLFLFYLILAGALLRPQPQRSQQSVPEEFSAPLELLQPLSGLVDDYGLRPKHPRPGGPRPLLSQAQQRKRDGPNMADYYYDVNL
# B3: HA-tagged heme oxygenase 1 (HA-HO-1) (protein, UniProt P14901 1-289)
# chain: MERPQPDSMPQDLSEALKEATKEVHIQAENAEFMKNFQKGQVSREGFKLVMASLYHIYTALEEEIERNKQNPVYAPLYFPEELHRRAALEQDMAFWYGPHWQEIIPCTPATQHYVKRLHEVGRTHPELLVAHAYTRYLGDLSGGQVLKKIAQKAMALPSSGEGLAFFTFPNIDSPTKFKQLYRARMNTLEMTPEVKHRVTEEAKTAFLLNIELFEELQVMLTEEHKDQSPSQMASLRQRPASLVQDTAPAETPRGKPQISTSSSQTPLLQWVLTLSFLLATVAVGIYAM
# What was measured:
# [1] = target: T1, Frey regulator of sperm-oocyte fusion 1 with C-terminal 3xFLAG tag (Frey1-3xFLAG), wild type (murine); experiment: co-IP; competitive co-immunoprecipitation pulling on Frey1-3xFLAG or its TMD mutant from transiently transfected HEK cells, with or without co-expressed HA-HO-1 as model substrate; SPPL2c blotted
# [2] = target: T1, Frey regulator of sperm-oocyte fusion 1 with C-terminal 3xFLAG tag (Frey1-3xFLAG), wild type (murine); experiment: co-IP; anti-FLAG M2 and Protein G agarose from 0.5% CHAPSO lysates (1 mg in 500 µl, overnight, 4 °C) of transiently transfected HEK293T cells; four washes with CHAPSO buffer; eluates blotted; co-precipitated SPPL2c divided by the precipitated Frey1 or PLN variant and normalised to wild-type Frey1
# [3] = target: T2, Frey1-3xFLAG R30K (murine); experiment: as above
# [4] = target: T3, Signal Peptide Peptidase-like 2c, C-terminally myc-tagged (SPPL2c-myc) (murine); experiment: co-IP; HA-RAMP4-2 or Frey1-3xFLAG co-precipitated with C-terminally myc-tagged murine SPPL2c (Suppl. Figure 1B); precipitating antibody not told in the text shown
Binder,binding [1],binding [2],binding [3],binding [4]
B1,binds,binds,binds,
B2,,,,binds
B3,,no binding,,
